{
  "sequences": {"note": "Amino acid sequences for entries named in this document (tags omitted).", "UniProt P61586": "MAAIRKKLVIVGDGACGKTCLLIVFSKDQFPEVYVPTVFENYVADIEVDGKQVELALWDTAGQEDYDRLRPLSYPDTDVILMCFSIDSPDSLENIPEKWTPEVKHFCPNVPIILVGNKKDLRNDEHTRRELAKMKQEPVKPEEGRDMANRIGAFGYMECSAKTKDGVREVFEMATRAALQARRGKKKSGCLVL"},
  "source": "patent EP1452589A1",
  "note": "These are yes or no findings as the source states them, for the method shown. Some results given as binding are weak or reduced against the parent protein; the word gives no strength.",
  "data": [
    {"molecular_target": "Wild type RhoA expressed as recombinant glutathione S-transferase fusion protein (UniProt P61586)", "experiment": "precipitation with GST-RhoA on glutathione Sepharose beads, Western blot (+: normal binding to RhoA)", "values": [
      {"binder": "ADP-ribosyltransferase C3cer wild type (enzyme) GNIPTKPKDCNNVDKYKLCTNKEEADAWGKKQFNKWSKEEKSAIRDYTKNARPYNEFLRMHAGKLDSDPTMKKKIESLDKALNRKEAKVNDNIKVYRGDDAWIFGKEYDNSIIKNGKVDREKFKEIQKKFQGKTTTEFGYISTSILIDAGYAKTRPVMTEFKVGSGTHGAYMNSDDLTAYPGQYELLLPRNTVYKIEKIYIAIDNNTQKEQIKVEATIK", "binding": "binds"},
      {"binder": "C3cer E185Q (enzyme) GNIPTKPKDCNNVDKYKLCTNKEEADAWGKKQFNKWSKEEKSAIRDYTKNARPYNEFLRMHAGKLDSDPTMKKKIESLDKALNRKEAKVNDNIKVYRGDDAWIFGKEYDNSIIKNGKVDREKFKEIQKKFQGKTTTEFGYISTSILIDAGYAKTRPVMTEFKVGSGTHGAYMNSDDLTAYPGQYQLLLPRNTVYKIEKIYIAIDNNTQKEQIKVEATIK", "binding": "binds"},
      {"binder": "C3cer R59K (enzyme) GNIPTKPKDCNNVDKYKLCTNKEEADAWGKKQFNKWSKEEKSAIRDYTKNARPYNEFLKMHAGKLDSDPTMKKKIESLDKALNRKEAKVNDNIKVYRGDDAWIFGKEYDNSIIKNGKVDREKFKEIQKKFQGKTTTEFGYISTSILIDAGYAKTRPVMTEFKVGSGTHGAYMNSDDLTAYPGQYELLLPRNTVYKIEKIYIAIDNNTQKEQIKVEATIK", "binding": "binds"},
      {"binder": "C3cer R97K (enzyme) GNIPTKPKDCNNVDKYKLCTNKEEADAWGKKQFNKWSKEEKSAIRDYTKNARPYNEFLRMHAGKLDSDPTMKKKIESLDKALNRKEAKVNDNIKVYKGDDAWIFGKEYDNSIIKNGKVDREKFKEIQKKFQGKTTTEFGYISTSILIDAGYAKTRPVMTEFKVGSGTHGAYMNSDDLTAYPGQYELLLPRNTVYKIEKIYIAIDNNTQKEQIKVEATIK", "binding": "binds"},
      {"binder": "C3cer R59K/R97K (enzyme) GNIPTKPKDCNNVDKYKLCTNKEEADAWGKKQFNKWSKEEKSAIRDYTKNARPYNEFLKMHAGKLDSDPTMKKKIESLDKALNRKEAKVNDNIKVYKGDDAWIFGKEYDNSIIKNGKVDREKFKEIQKKFQGKTTTEFGYISTSILIDAGYAKTRPVMTEFKVGSGTHGAYMNSDDLTAYPGQYELLLPRNTVYKIEKIYIAIDNNTQKEQIKVEATIK", "binding": "binds"},
      {"binder": "C3cer T151V (enzyme) GNIPTKPKDCNNVDKYKLCTNKEEADAWGKKQFNKWSKEEKSAIRDYTKNARPYNEFLRMHAGKLDSDPTMKKKIESLDKALNRKEAKVNDNIKVYRGDDAWIFGKEYDNSIIKNGKVDREKFKEIQKKFQGKTTTEFGYISTSILIDAGVAKTRPVMTEFKVGSGTHGAYMNSDDLTAYPGQYELLLPRNTVYKIEKIYIAIDNNTQKEQIKVEATIK", "binding": "binds"},
      {"binder": "C3cer R155E (enzyme) GNIPTKPKDCNNVDKYKLCTNKEEADAWGKKQFNKWSKEEKSAIRDYTKNARPYNEFLRMHAGKLDSDPTMKKKIESLDKALNRKEAKVNDNIKVYRGDDAWIFGKEYDNSIIKNGKVDREKFKEIQKKFQGKTTTEFGYISTSILIDAGYAKTEPVMTEFKVGSGTHGAYMNSDDLTAYPGQYELLLPRNTVYKIEKIYIAIDNNTQKEQIKVEATIK", "binding": "binds"},
      {"binder": "C3cer T178A (enzyme) GNIPTKPKDCNNVDKYKLCTNKEEADAWGKKQFNKWSKEEKSAIRDYTKNARPYNEFLRMHAGKLDSDPTMKKKIESLDKALNRKEAKVNDNIKVYRGDDAWIFGKEYDNSIIKNGKVDREKFKEIQKKFQGKTTTEFGYISTSILIDAGYAKTRPVMTEFKVGSGTHGAYMNSDDLAAYPGQYELLLPRNTVYKIEKIYIAIDNNTQKEQIKVEATIK", "binding": "binds"},
      {"binder": "C3cer Q183E (enzyme) GNIPTKPKDCNNVDKYKLCTNKEEADAWGKKQFNKWSKEEKSAIRDYTKNARPYNEFLRMHAGKLDSDPTMKKKIESLDKALNRKEAKVNDNIKVYRGDDAWIFGKEYDNSIIKNGKVDREKFKEIQKKFQGKTTTEFGYISTSILIDAGYAKTRPVMTEFKVGSGTHGAYMNSDDLTAYPGEYELLLPRNTVYKIEKIYIAIDNNTQKEQIKVEATIK", "binding": "binds"}
    ]}
  ]
}
